Values from PubChem BioAssay AID1259327 (Drosophila RNAi Screening Center, 2017).

Purpose: 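Knock-downs altering cellular ATP with no metal added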
Cell system: Drosophila S2R+ cells
Reagents: long dsRNA against Drosophila genes
Duration: 5 days (water added on day 4, read one day later)
Treatment: water added as vehicle, no metal, one day before read-out
Detection: 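Total ATP measured by luciferase light, scaled to plate mean, duplicates averaged, then z-scored across plates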
Direction: ATP z-score: higher = more total ATP than typical wells; ATP luminescence: higher = more total ATP
Call rule: 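Called active when the ATP z-score exceeds 1.5 or falls below -1.5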
Meaning of the calls: active = hit: ATP up or down; inactive = no clear ATP change
The deposit covers about 3,100 reagents; shown is a part drawn at random. 378 of them (12%) were called active. 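Hits include both directions; z-score sign shows ATP rise or fall; raw luminescence values are not plate-normalised.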 Unmarked entries are inactive. The numbers tell different reagents against one gene apart. The record does not give: the amount of reagent.

target gene	dsRNA no.	ATP z-score, duplicate mean	ATP luminescence, replicate 1 (RLU)	ATP luminescence, replicate 2 (RLU)
Cnx99A (Calnexin 99A)	1	-1.99 (active)	6.24e5	5.80e5
Oamb (Octopamine receptor in mushroom bodies)	1	-0.828	2.63e5	6.69e5
Oamb (Octopamine receptor in mushroom bodies)	2	0.137	7.57e5	7.58e5
Oamb (Octopamine receptor in mushroom bodies)	3	-0.874	2.65e5	6.54e5
Nemp (Nuclear envelope integral membrane protein)	1	-0.77	5.88e5	6.63e5
Nemp (Nuclear envelope integral membrane protein)	2	-0.179	8.91e5	1.14e6
SPoCk (Secretory Pathway Calcium atpase)	1	-0.975	7.89e5	7.48e5
SPoCk (Secretory Pathway Calcium atpase)	2	0.331	9.24e5	8.07e5
CG17930	1	0.163	7.36e5	7.10e5
CG17930	2	-0.456	7.50e5	7.84e5
Rh2 (Rhodopsin 2)	1	-0.576	2.93e5	6.48e5
Rh2 (Rhodopsin 2)	2	-0.501	7.42e5	8.34e5
rtet (tetracycline resistance)	1	0.116	7.23e5	7.12e5
rtet (tetracycline resistance)	2	1.51 (active)	5.36e5	6.36e5
SiaT (Sialyltransferase)	1	0.218	7.97e5	7.02e5
SiaT (Sialyltransferase)	2	0.595	4.68e5	5.45e5
Irk1 (Inwardly rectifying potassium channel 1)	1	0.262	3.17e5	7.75e5
twz (tiwaz)	1	1.46	8.89e5	8.74e5
twz (tiwaz)	2	0.635	9.96e5	8.61e5
Papst2 (PAPS transporter 2)	1	-2.29 (active)	4.82e5	4.91e5
Papst2 (PAPS transporter 2)	2	0.935	7.82e5	8.71e5
acs (arcus)	1	0.42	5.87e5	7.28e5
acs (arcus)	2	0.653	1.12e6	1.16e6
Cftr (CF transmembrane conductance regulator)	1	0.451	7.93e5	7.13e5
Cftr (CF transmembrane conductance regulator)	2	1.03	1.03e6	9.28e5
CG1246	1	1.19	7.52e5	7.02e5
CG1246	2	-1.8 (active)	4.29e5	4.33e5
BI-1 (Bax Inhibitor-1)	1	-0.614	6.11e5	7.21e5
BI-1 (Bax Inhibitor-1)	2	-1.39	3.91e5	3.32e5
sip3 (septin interacting protein 3)	1	0.327	7.79e5	9.37e5
sip3 (septin interacting protein 3)	2	-1.47	3.93e5	3.58e5
Tmtc4 (Transmembrane O-mannosyltransferase targeting cadherins 4)	1	-0.511	2.77e5	7.04e5
Tmtc4 (Transmembrane O-mannosyltransferase targeting cadherins 4)	2	-1.07	3.42e5	4.45e5
CG43795	1	-0.307	7.07e5	6.80e5
CG43795	2	-0.911	6.47e5	6.12e5
CG43795	3	2.05 (active)	1.02e6	8.74e5
slo (slowpoke)	1	0.486	7.44e5	7.67e5
Or35a (Odorant receptor 35a)	1	-0.33	7.18e5	6.65e5
Or35a (Odorant receptor 35a)	2	-0.171	5.25e5	3.63e5
emb (embargoed)	1	3.09 (active)	6.37e5	7.59e5
TkR86C (Tachykinin-like receptor at 86C)	1	-0.433	2.73e5	7.33e5
Itgbn (Integrin betanu subunit)	1	1.03	8.68e5	8.03e5
Itgbn (Integrin betanu subunit)	2	0.0934	5.22e5	4.46e5
mthl1 (methuselah-like 1)	1	0.0402	7.44e5	7.50e5
mthl1 (methuselah-like 1)	2	-0.373	5.41e5	5.65e5
beta4GalT7 (beta-4-galactosyltransferase 7)	1	-0.25	2.59e5	8.09e5
Or33c (Odorant receptor 33c)	1	0.569	7.70e5	8.02e5
pes (peste)	1	0.362	7.86e5	7.43e5
pes (peste)	2	-0.882	7.25e5	7.57e5
Glut1 (Glucose transporter 1)	1	-0.481	6.45e5	7.39e5
Glut1 (Glucose transporter 1)	2	0.149	6.82e5	8.14e5
Nup44A (Nucleoporin at 44A)	1	0.108	7.41e5	7.44e5
Nup44A (Nucleoporin at 44A)	2	2.52 (active)	1.07e6	1.22e6
CG13784	1	-1.04	6.29e5	6.29e5
trp (transient receptor potential)	1	0.637	5.04e5	7.65e5
trp (transient receptor potential)	2	0.152	4.47e5	5.06e5
OstDelta (Oligosaccharide transferase Delta subunit)	1	0.353	7.03e5	8.36e5
OstDelta (Oligosaccharide transferase Delta subunit)	2	-0.245	7.52e5	8.73e5
side-VIII (sidestep VIII)	1	0.9	7.16e5	5.95e5
side-VIII (sidestep VIII)	2	-0.685	7.57e5	7.25e5
Abcd3 (ATP binding cassette subfamily D member 3)	1	0.104	7.26e5	7.83e5
Abcd3 (ATP binding cassette subfamily D member 3)	2	-0.382	8.09e5	7.47e5
CG11110	1	-1.44	5.36e5	4.41e5
CG11110	2	1.74 (active)	1.18e6	1.17e6
CG33110	1	-0.794	2.53e5	7.03e5
CG33110	2	1.38	6.88e5	7.05e5
ZnT77C (Zinc transporter 77C)	1	-0.47	8.24e5	8.43e5
ZnT77C (Zinc transporter 77C)	2	-0.0788	7.60e5	7.06e5
